# Data reported in the supplement of paper PMC6411743.
# ± gives the standard deviation of the averaged measurements. The entries are a selection whose mix differs from that of the whole data set.
# Assays:
# Assay in all cases: NP40-soluble protein abundance relative to vehicle (solubility fold change) (ratio); higher = more soluble protein in presence of ATP
# [1] = molecular target: T1, UniProt O15123 and related entries
# T1 sequence (whole entry): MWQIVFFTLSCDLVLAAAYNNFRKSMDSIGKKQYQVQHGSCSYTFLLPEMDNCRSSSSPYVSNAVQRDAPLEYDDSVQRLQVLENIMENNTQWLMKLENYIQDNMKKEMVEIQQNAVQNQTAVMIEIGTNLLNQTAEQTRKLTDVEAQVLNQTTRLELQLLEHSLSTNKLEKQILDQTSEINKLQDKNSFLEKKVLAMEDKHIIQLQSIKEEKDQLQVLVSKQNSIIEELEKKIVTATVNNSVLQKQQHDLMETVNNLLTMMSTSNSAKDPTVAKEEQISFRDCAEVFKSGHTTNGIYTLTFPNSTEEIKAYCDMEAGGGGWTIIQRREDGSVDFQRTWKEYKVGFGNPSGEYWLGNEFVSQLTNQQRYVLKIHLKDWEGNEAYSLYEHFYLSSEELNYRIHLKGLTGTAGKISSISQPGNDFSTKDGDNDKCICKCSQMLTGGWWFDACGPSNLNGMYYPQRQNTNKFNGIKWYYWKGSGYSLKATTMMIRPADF
# Outline: (§1)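 Jurkat crude lysate (Dounce-homogenised) was treated with eight concentrations from 0.1 to 10 mM for 10 min at room temperature, then 3 min at 37 °C. It was solubilised with 0.8% NP40 and benzonase (60 min, 4 °C) and ultracentrifuged, and the supernatant was TMT-labelled for LC-MS/MS. Intensities were vsn-normalised, and the value is the fold change against the NP40-processed vehicle per replicate, from three independent experiments.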
# [2] = molecular target: T2, UniProt O15173 and related entries
# T2 sequence (whole entry): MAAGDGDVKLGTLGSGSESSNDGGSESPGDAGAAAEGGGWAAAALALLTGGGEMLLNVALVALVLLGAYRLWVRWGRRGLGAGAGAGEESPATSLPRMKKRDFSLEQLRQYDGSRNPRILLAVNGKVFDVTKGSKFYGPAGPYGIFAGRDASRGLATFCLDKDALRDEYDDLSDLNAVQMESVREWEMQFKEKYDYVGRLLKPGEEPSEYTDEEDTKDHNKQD
# Outline: as §1
# [3] = molecular target: T3, UniProt O43310 and related entries
# T3 sequence (whole entry): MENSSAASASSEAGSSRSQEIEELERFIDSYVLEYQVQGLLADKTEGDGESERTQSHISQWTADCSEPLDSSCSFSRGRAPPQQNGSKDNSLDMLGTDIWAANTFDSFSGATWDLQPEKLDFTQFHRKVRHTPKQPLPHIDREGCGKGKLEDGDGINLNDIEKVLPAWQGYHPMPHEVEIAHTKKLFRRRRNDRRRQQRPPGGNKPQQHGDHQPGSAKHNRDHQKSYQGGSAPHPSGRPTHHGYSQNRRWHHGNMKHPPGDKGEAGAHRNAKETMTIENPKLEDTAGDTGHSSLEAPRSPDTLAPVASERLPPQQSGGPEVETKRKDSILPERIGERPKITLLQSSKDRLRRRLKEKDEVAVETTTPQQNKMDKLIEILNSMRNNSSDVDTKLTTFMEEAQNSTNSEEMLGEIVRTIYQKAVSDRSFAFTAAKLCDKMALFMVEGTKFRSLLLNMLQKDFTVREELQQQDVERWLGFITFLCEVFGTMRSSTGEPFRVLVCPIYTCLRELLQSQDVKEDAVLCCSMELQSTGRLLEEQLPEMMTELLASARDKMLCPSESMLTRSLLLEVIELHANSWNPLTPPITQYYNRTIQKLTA
# Outline: as §1
# UniProt O43318-2|O43318 = molecular target: T4, UniProt O43318-2|O43318
# T4 sequence (whole entry): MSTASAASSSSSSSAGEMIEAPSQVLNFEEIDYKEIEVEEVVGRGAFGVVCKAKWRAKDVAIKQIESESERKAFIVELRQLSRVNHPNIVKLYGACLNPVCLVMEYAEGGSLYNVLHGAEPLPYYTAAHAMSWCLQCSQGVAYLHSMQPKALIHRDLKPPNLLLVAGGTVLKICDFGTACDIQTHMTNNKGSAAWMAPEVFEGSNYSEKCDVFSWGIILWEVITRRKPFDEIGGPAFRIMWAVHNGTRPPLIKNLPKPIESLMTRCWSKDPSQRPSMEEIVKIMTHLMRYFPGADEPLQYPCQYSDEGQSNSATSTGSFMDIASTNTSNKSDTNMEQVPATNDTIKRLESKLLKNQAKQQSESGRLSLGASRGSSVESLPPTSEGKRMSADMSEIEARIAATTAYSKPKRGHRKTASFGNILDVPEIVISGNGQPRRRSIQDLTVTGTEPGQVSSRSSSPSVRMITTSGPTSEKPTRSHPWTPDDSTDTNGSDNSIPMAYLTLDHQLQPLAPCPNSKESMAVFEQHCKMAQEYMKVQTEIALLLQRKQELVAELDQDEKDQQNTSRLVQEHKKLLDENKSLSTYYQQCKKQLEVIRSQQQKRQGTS
# Outline: as §1
# [4] = molecular target: T5, UniProt O43586 and related entries
# T5 sequence (whole entry): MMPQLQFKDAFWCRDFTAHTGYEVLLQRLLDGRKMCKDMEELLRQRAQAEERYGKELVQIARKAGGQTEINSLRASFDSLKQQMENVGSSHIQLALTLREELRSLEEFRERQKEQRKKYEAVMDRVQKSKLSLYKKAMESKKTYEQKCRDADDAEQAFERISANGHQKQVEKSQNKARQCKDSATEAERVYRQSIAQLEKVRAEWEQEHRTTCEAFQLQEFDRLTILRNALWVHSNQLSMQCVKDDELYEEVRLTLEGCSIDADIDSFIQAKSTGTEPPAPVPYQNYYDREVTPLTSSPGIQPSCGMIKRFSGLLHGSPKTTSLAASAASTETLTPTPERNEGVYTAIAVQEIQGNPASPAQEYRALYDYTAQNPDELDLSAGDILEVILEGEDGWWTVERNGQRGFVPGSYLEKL
# Outline: as §1
# ZW10 = molecular target: T6, ZW10 (UniProt O43264)
# T6 sequence (whole entry): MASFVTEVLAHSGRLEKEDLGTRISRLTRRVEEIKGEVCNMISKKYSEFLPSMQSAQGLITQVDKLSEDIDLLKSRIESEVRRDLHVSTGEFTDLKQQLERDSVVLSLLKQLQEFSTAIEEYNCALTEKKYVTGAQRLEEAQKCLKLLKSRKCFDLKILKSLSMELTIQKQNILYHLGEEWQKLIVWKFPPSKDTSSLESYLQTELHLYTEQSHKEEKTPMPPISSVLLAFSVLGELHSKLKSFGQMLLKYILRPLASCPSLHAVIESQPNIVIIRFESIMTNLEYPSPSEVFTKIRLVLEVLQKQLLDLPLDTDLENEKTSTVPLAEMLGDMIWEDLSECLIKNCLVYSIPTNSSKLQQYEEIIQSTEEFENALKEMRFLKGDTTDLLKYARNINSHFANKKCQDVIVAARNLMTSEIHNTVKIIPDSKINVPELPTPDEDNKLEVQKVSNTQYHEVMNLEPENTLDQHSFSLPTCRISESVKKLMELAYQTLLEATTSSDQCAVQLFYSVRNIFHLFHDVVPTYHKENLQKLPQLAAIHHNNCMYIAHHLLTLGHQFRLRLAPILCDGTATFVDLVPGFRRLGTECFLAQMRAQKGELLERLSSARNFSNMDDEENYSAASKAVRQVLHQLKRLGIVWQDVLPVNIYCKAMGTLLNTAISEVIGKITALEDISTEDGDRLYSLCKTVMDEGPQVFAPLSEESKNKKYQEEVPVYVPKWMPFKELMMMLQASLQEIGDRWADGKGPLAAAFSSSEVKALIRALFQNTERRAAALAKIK
# Outline: as §1
smiles,measurement,setting,value
Nc1ncnc2c1ncn2[C@@H]1O[C@H](COP(=O)(O)OP(=O)(O)OP(=O)(O)O)[C@@H](O)[C@H]1O [adenosine triphosphate],NP40-soluble protein abundance,[1]; concentration: 6mM,0.90663 ± 0.00026
same,NP40-soluble protein abundance,[1]; concentration: 8mM,0.816 ± 0.028
same,NP40-soluble protein abundance,[1]; concentration: 10mM,0.774 ± 0.051
same,NP40-soluble protein abundance,[2]; concentration: 1mM,0.923 ± 0.023
same,NP40-soluble protein abundance,[2]; concentration: 2mM,0.926 ± 0.035
same,NP40-soluble protein abundance,[2]; concentration: 4mM,0.928 ± 0.05
same,NP40-soluble protein abundance,[2]; concentration: 6mM,0.853 ± 0.04
same,NP40-soluble protein abundance,[2]; concentration: 8mM,0.885 ± 0.023
same,NP40-soluble protein abundance,[2]; concentration: 10mM,0.835 ± 0.098
same,NP40-soluble protein abundance,[3]; concentration: 1mM,0.927 ± 0.098
same,NP40-soluble protein abundance,[3]; concentration: 2mM,1.02 ± 0.062
same,NP40-soluble protein abundance,[3]; concentration: 4mM,1.02 ± 0.051
same,NP40-soluble protein abundance,[3]; concentration: 6mM,0.971 ± 0.017
same,NP40-soluble protein abundance,[3]; concentration: 8mM,0.975 ± 0.052
same,NP40-soluble protein abundance,[3]; concentration: 10mM,1.01 ± 0.031
same,NP40-soluble protein abundance,UniProt O43318-2|O43318; concentration: 1mM,0.955 ± 0.044
same,NP40-soluble protein abundance,UniProt O43318-2|O43318; concentration: 2mM,0.965 ± 0.026
same,NP40-soluble protein abundance,UniProt O43318-2|O43318; concentration: 4mM,0.946 ± 0.036
same,NP40-soluble protein abundance,UniProt O43318-2|O43318; concentration: 6mM,1 ± 0.011
same,NP40-soluble protein abundance,UniProt O43318-2|O43318; concentration: 8mM,0.923 ± 0.024
same,NP40-soluble protein abundance,UniProt O43318-2|O43318; concentration: 10mM,0.935 ± 0.01
same,NP40-soluble protein abundance,[4]; concentration: 1mM,1.01 ± 0.085
same,NP40-soluble protein abundance,[4]; concentration: 2mM,1.103 ± 0.0054
same,NP40-soluble protein abundance,[4]; concentration: 4mM,1.3 ± 0.31
same,NP40-soluble protein abundance,[4]; concentration: 6mM,1.03 ± 0.051
same,NP40-soluble protein abundance,[4]; concentration: 8mM,1.11 ± 0.054
same,NP40-soluble protein abundance,[4]; concentration: 10mM,1.12 ± 0.092
same,NP40-soluble protein abundance,ZW10; concentration: 1mM,1.04 ± 0.026
same,NP40-soluble protein abundance,ZW10; concentration: 2mM,1.03 ± 0.012
same,NP40-soluble protein abundance,ZW10; concentration: 4mM,1.001 ± 0.0087
same,NP40-soluble protein abundance,ZW10; concentration: 6mM,1.01 ± 0.032
same,NP40-soluble protein abundance,ZW10; concentration: 8mM,1.02 ± 0.013
same,NP40-soluble protein abundance,ZW10; concentration: 10mM,1.01 ± 0.043

# Another view of part of the listing above.
smiles	measurement	setting	value
Nc1ncnc2c1ncn2[C@@H]1O[C@H](COP(=O)(O)OP(=O)(O)OP(=O)(O)O)[C@@H](O)[C@H]1O [adenosine triphosphate]	NP40-soluble protein abundance	[2]; concentration: 6mM	0.853 ± 0.04
same	NP40-soluble protein abundance	UniProt O43318-2|O43318; concentration: 6mM	1 ± 0.011
same	NP40-soluble protein abundance	[4]; concentration: 2mM	1.103 ± 0.0054
same	NP40-soluble protein abundance	[4]; concentration: 8mM	1.11 ± 0.054
same	NP40-soluble protein abundance	ZW10; concentration: 1mM	1.04 ± 0.026
same	NP40-soluble protein abundance	ZW10; concentration: 2mM	1.03 ± 0.012
